These results are taken from PMC6532946, “Structure and assembly of pilotin-dependent and -independent secretins of the type II secretion system” (PLoS Pathogens, 2019).

No constants are given. Whether binding was seen depends on the method and setting. Some results given as binding are weak or reduced against the parent protein; the word gives no strength.

The assay addresses ExeD wild type in A. hydrophila cells (A. hydrophila) (UniProt P31780). Nature of the assay: immunoblot of the multimeric and monomeric forms after SDS-PAGE; whole cell samples of A. hydrophila Ah65 or AhD14 expressing WT or S-domain mutant ExeDs, mid- and late-log phase; samples heated to 95°C in sample buffer containing 2% SDS; ExeD antiserum. Background: Immunoblotting shows a protein as a band on a membrane.

B1: ExeD secretin from A. hydrophila (cell-free synthesized, His-tagged) (natural protein)
chain: TEYSASFKNADIEEFINTVGKNLSKTIIIEPSVRGKINVRSYDLLNEEQYYQFFLSVLDVYGFAVVPMDNGVLKVVRSKDAKTSAIPVVDETNPGIGDEMVTRVVPVRNVSVRELAPLLRQLNDNAGGGNVVHYDPSNVLLITGRAAVVNRLVEVVRRVDKAGDQEVDIIKLKYASAGEMVRLVTNLNKDGNSQGGNTSLLLAPKVVADERTNSVVVSGEPKARARIIQMVRQLDRDLQSQGNTRVFYLKYGKAKDMVEVLKGVSSSIEADKKGGGTATTAGGGASIGGGKLAISADETTNALVITAQPDVMAELEQVVAKLDIRRAQVLVEAIIVEIADGDGLNLGVQWANTNGGGTQFTNAGPGIGSVAIAAKDYKDNGTTTGLAKLAENFNGMAAGFYQGNWAMLVTALSTNTKSDILSTPSIVTMDNKEASFNVGQEVPVQTGTQNSTSGDTTFSTIERKTVGTKLVVTPQINEGDSVLLTIEQEVSSVGKQATGTDGLGPTFDTRTVKNAVLVKSGETVVLGGLMDEQTKEEVSKVPLLGDIPVLGYLFRSTSNNTSKRNLMVFIRPTILRDANVYSGISSNKYTLFRAQQLDAVAQEGYATSPDRQVLPEYGQDVTMSPEAQKQIELMKTHQQATADGVQPFVQGNK
notes: ExeD, T2SS secretin of Aeromonas hydrophila; a TEV cleavage site linker lies between the His-6 tag and the protein. numbers count on: the mature protein; No TEV cleavage is described; also called pilotin-independent ExeD; GspD; source: cell-free expression system with liposomes, extracted as multimers with Zw3-14, purified (Ni-NTA, Superose 6); copies: 15
With B1, the binding result is reported as “binds”.
